Patent publication US20050282743A1, “Molecular interactions in cells” (Arbor Vita Corporation, priority 2001, published 2005)
Results are given in words; binding and its absence hold for the method and conditions named. Some entries that bind do so weakly or less than the wild type. Sequences can lack the tags named with a protein.

How the values were obtained:
[1] = biological target: T1, GST-TIP-1 (Example 3) (human) (UniProt O14907); assay: G assay competition, unlabeled 8-mer
T1 sequence: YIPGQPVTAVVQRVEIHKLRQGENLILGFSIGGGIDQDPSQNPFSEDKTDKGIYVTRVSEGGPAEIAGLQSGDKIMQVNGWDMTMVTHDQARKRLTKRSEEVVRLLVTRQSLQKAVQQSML

[2] = biological target: T1, GST-TIP-1 (Example 3) (human); assay: competition G assay: unlabeled Tax C-terminal 8-mer varied against 20 uM biotinylated CD95 20-mer on immobilised GST-TIP-1, streptavidin-HRP/TMB, read at A450

B1: unlabeled 8 amino acid peptide corresponding to the C-terminus of Tax (peptide)
peptide: KHFRETEV
binding [1]: binds
binding [2]: binds
